Assay results reported in PubChem BioAssay AID342 (DTP/NCI, 2004).
The list does not hold the whole screen: it is rich in T/C values a quarter to a half above the control, in often repeated tests (any T/C) and in doses without a T/C. Further doses and runs are listed elsewhere. T/C gives the treated animals as a percentage of the vehicle group. Schedule codes are those of the source, taken here to give the interval after Q, in days (D) or hours (H), and the number of doses after X. Some schedule codes hold Z or #, which are not explained here. Some entries give survivors of the animals treated and no T/C: the source files T/C as zero there, which appears to mark a toxic dose or a test without result, not a measured value. Counts of survivors are from the toxicity check (mostly the fifth day) where no day follows; animals may have died later. Some doses were run more than once; the values are given in rising order.

Test system: Swiss mice, Sarcoma 180 sc, mean tumor weight T/C
Test: NCI In Vivo Anticancer Drug Screen. Data for tumor model Sarcoma 180 (subcutaneous) in Swiss mice
Settings: T/C endpoint: mean tumor weight, higher T/C = larger tumour; for T/C: evaluated on day 8
Method in brief: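 Tumor-bearing mice, transplantable tumor; readout survival or tumor size; result = T/C, treated vs vehicle control.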

[1] = dose: 150.0 mg/kg/injection, schedule: Q01DX007 (ip), vehicle: carboxymethylcellulose (CMC)
[2] = dose: 250.0 mg/kg/injection, schedule: Q01DX007 (ip), vehicle: saline
[3] = dose: 125.0 mg/kg/injection, schedule: Q01DX007 (ip), vehicle: saline
[4] = dose: 500.0 mg/kg/injection, schedule: Q01DX007 (ip), vehicle: other

Structure (SMILES): CCCCCCCCCCCCCCCC[N+]1(C)CCN(SN2CC[N+](C)(CCCCCCCCCCCCCCCC)CC2)CC1
- survivor count (dose: 47.5 mg/kg/injection, schedule: Q#A X014 (ip), vehicle: saline): 3 of 6
- survivor count (dose: 71.5 mg/kg/injection, schedule: Q#A X014 (ip), vehicle: saline): 1 of 6

Structure (SMILES): O=C(O)CCC(=O)CCl
- survivor count (dose: 45.0 mg/kg/injection, schedule: Q01DX007 (ip), vehicle: saline): 0 of 7

Structure (SMILES): CCCCCCCCCCCCCCCCC(C(=O)O)C(O)(CC(=O)O)C(=O)O (stereo unspecified)
- survivor count [1]: 0 of 7

Structure (SMILES): CNNCc1ccc(C(=O)NC(N)=O)cc1
- survivor count (dose: 500.0 mg/kg/injection, schedule: Q01DX007 (ip), vehicle: carboxymethylcellulose (CMC)): 2 of 6
- survivor count (dose: 500.0 mg/kg/injection, schedule: Q01DX007 (ip), vehicle: saline): 3 of 6

Structure (SMILES): CC(=O)Nc1ccc2c(c1)Cc1cc(NC=O)ccc1-2
- survivor count (dose: 250.0 mg/kg/injection, schedule: Q01DX007 (ip), vehicle: carboxymethylcellulose (CMC)): 1 of 6
- survivor count (dose: 375.0 mg/kg/injection, schedule: Q01DX007 (ip), vehicle: carboxymethylcellulose (CMC)): 2 of 6

Structure (SMILES): C[N+]1(CCC[N+]2(C)C[C@@H]3[C@H](C2)[C@@H]2C=C[C@H]3C2)CCOCC1 (stereo partly specified)
- T/C [2]: 130 % of control
- survivor count (dose: 1000.0 mg/kg/injection, schedule: Q01DX007 (ip), vehicle: saline): 0 of 6

Structure (SMILES): [N-]=[N+]=NC1(C(=O)O)CCCC1
- T/C [1]: 141 % of control

Structure (SMILES): CC(=O)OC(C)(C)/C=C/C(=O)[C@](C)(O)[C@H]1[C@H](O)C[C@@]2(C)[C@@H]3CC=C4[C@@H](C[C@H](O)C(=O)C4(C)C)[C@]3(C)C(=O)C[C@]12C
- survivor count (dose: 1.6 mg/kg/injection, schedule: Q01DX007 (ip), vehicle: saline): 1 of 4
- survivor count (dose: 3.2 mg/kg/injection, schedule: Q01DX007 (ip), vehicle: saline): 0 of 4

Structure (SMILES): CC(=O)OCC(=O)[C@@]1(O)CC[C@H]2[C@@H]3CCC4=CC(=O)CC[C@]4(C)[C@H]3[C@@H](O)C[C@@]21C
- survivor count (dose: 100.0 mg/kg/injection, schedule: Q#A X014 (ip), vehicle: steroid suspending solution): 1 of 6

Structure (SMILES): C[C@]12CC[C@@H]3c4ccc(O)cc4CC[C@H]3[C@@H]1C[C@H](O)C2
- T/C (dose: 2.5 mg/kg/injection, schedule: Q01DX007 (sc), vehicle: steroid suspending solution): 140 % of control
- survivor count (dose: 10.0 mg/kg/injection, schedule: Q#A X014 (ip), vehicle: methylcellulose (MC)): 3 of 6

Structure (SMILES): C/C=C(/C)C(=O)O[C@H]1CCN2CC=C(COC(=O)[C@@](O)([C@H](C)OC)C(C)(C)O)[C@H]12
- survivor count (dose: 44.0 mg/kg/injection, schedule: Q01DX007 (ip), vehicle: carboxymethylcellulose (CMC)): 3 of 6
- survivor count (dose: 66.0 mg/kg/injection, schedule: Q01DX007 (ip), vehicle: carboxymethylcellulose (CMC)): 0 of 6
- survivor count (dose: 100.0 mg/kg/injection, schedule: Q01DX007 (ip), vehicle: carboxymethylcellulose (CMC)): 0 of 6
- survivor count [1]: 0 of 6

Structure (SMILES): Nc1nc2n[nH]nc2c(=O)[nH]1
- survivor count (dose: 126.0 mg/kg/injection, schedule: Q01DX007 (ip), vehicle: other): 6 of 10
- survivor count (dose: 800.0 mg/kg/injection, schedule: Q01DX007 (ip), vehicle: other): 0 of 6

Structure (SMILES): CC(=O)OCC(=O)[C@@]1(O)CC[C@H]2[C@@H]3C[C@@H](C)C4=CC(=O)C=C[C@]4(C)[C@H]3[C@@H](O)C[C@@]21C
- survivor count (dose: 563.0 mg/kg/injection, schedule: Q01DX007 (sc), vehicle: steroid suspending solution): 3 of 6

Structure (SMILES): [Cu+2].[O-]c1ccc(Br)c2cccnc12.[O-]c1ccc(Br)c2cccnc12
- survivor count (dose: 9.4 mg/kg/injection, schedule: Q01DX007 (ip), vehicle: carboxymethylcellulose (CMC)): 1 of 6
- survivor count (dose: 14.0 mg/kg/injection, schedule: Q01DX007 (ip), vehicle: carboxymethylcellulose (CMC)): 0 of 6 and 0 of 7
- survivor count (dose: 21.0 mg/kg/injection, schedule: Q01DX007 (ip), vehicle: carboxymethylcellulose (CMC)): 0 of 7
- survivor count (dose: 32.0 mg/kg/injection, schedule: Q01DX007 (ip), vehicle: carboxymethylcellulose (CMC)): 0 of 7
- survivor count (dose: 48.0 mg/kg/injection, schedule: Q01DX007 (ip), vehicle: carboxymethylcellulose (CMC)): 0 of 7
- survivor count (dose: 48.0 mg/kg/injection, schedule: Q01DX007 (ip), vehicle: other): 0 of 6

Structure (SMILES): COc1cc2c3c(c4ccc(OC)c(OC)c4c2cc1OC)CN1CCC[C@@H]1C3
- survivor count (dose: 18.0 mg/kg/injection, schedule: Q01DX007 (ip), vehicle: water): 1 of 6

Structure (SMILES): C[C@]12CCc3c(ccc4cc(O)ccc34)[C@@H]1C[C@H](O)[C@@H]2O
- T/C (dose: 5.0 mg/kg/injection, schedule: Q01DX007 (sc), vehicle: steroid suspending solution): 131 % of control

Structure (SMILES): Cc1ncc(CO)c(C)c1O
- survivor count (dose: 220.0 mg/kg/injection, schedule: Q01DX007 (ip), vehicle: carboxymethylcellulose (CMC)): 5 of 10

Structure (SMILES): COc1ccc2c(c1O)-c1c(OC)c(OC)cc3c1[C@H](C2)[N+](C)(C)CC3
- T/C (dose: 1.25 mg/kg/injection, schedule: Q01DX007 (ip), vehicle: saline): 127 % of control
- survivor count (dose: 10.0 mg/kg/injection, schedule: Q01DX007 (ip), vehicle: saline): 3 of 6
- survivor count (dose: 55.0 mg/kg/injection, schedule: Q01DX007 (ip), vehicle: saline): 0 of 6
- survivor count (dose: 83.0 mg/kg/injection, schedule: Q01DX007 (ip), vehicle: saline): 0 of 6
- survivor count [3]: 0 of 6

Structure (SMILES): NCCc1ccccc1
- survivor count [3]: 0 of 6
- survivor count [2]: 0 of 6

Structure (SMILES): O=C1c2cc(Cl)ccc2-c2c(Cl)cc(Cl)cc21
- survivor count (dose: 75.0 mg/kg/injection, schedule: Q01DX007 (ip), vehicle: methylcellulose (MC)): 2 of 6
- survivor count (dose: 150.0 mg/kg/injection, schedule: Q01DX007 (ip), vehicle: methylcellulose (MC)): 3 of 6
- survivor count [4]: 3 of 6
- survivor count (dose: 750.0 mg/kg/injection, schedule: Q01DX007 (ip), vehicle: carboxymethylcellulose (CMC)): 3 of 6

Structure (SMILES): CCN(CC)CCOC(=O)c1ccc(N)cc1
- survivor count (dose: 150.0 mg/kg/injection, schedule: Q#A X014 (ip), vehicle: saline): 0 of 7
- survivor count (dose: 300.0 mg/kg/injection, schedule: Q#A X014 (ip), vehicle: saline): 0 of 7

Structure (SMILES): CCOC1=C(N2CC2)C(=O)C(OCC)=C(N2CC2)C1=O
- survivor count (dose: 2.65 mg/kg/injection, schedule: Q#A X014 (ip), vehicle: methylcellulose (MC)): 2 of 6

Structure (SMILES): Nc1c(Br)cc2c(c1Br)Cc1cc(Cl)ccc1-2
- survivor count (dose: 93.0 mg/kg/injection, schedule: Q01DX007 (ip), vehicle: other): 3 of 6

Structure (SMILES): NC(=O)Oc1ccccc1
- survivor count [4]: 4 of 7
- survivor count (dose: 750.0 mg/kg/injection, schedule: Q01DX007 (ip), vehicle: other): 0 of 6 and 1 of 7
- survivor count (dose: 1119.0 mg/kg/injection, schedule: Q01DX007 (ip), vehicle: other): 1 of 6
- survivor count (dose: 1679.0 mg/kg/injection, schedule: Q01DX007 (ip), vehicle: other): 0 of 6

Structure (SMILES): O=C(O)Cc1ccc(C2CCCCC2)cc1
- T/C [1]: 136 % of control
- survivor count (dose: 1200.0 mg/kg/injection, schedule: Q01DX007 (ip), vehicle: carboxymethylcellulose (CMC)): 1 of 7

Structure (SMILES): CN(CC(=O)O)C(=N)N
- T/C (dose: 500.0 mg/kg/injection, schedule: Q#A X014 (ip), vehicle: water): 137 % of control

Structure (SMILES): COC(=O)c1[nH]c(=O)[nH]c(=O)c1F
- survivor count (dose: 70.0 mg/kg/injection, schedule: Q01DX007 (ip), vehicle: carboxymethylcellulose (CMC)): 3 of 6

Structure (SMILES): CC1(C)O[C@@H]2C[C@H]3[C@@H]4CCC5=CC(=O)C=C[C@]5(C)[C@@]4(F)[C@@H](O)C[C@]3(C)[C@]2(C(=O)CO)O1
- survivor count (dose: 3.75 mg/kg/injection, schedule: Q#A X014 (sc), vehicle: steroid suspending solution): 1 of 8
